Some results were stated once for a whole list of compounds, not compound by compound. At least one compound was matched to its structure with a doubt left.
System: RT16 (FRα)
Assay: Proliferation inhibition, FRα-expressing RT16 cells
Assay type: cell-based, Chinese hamster
Settings: Table 11; listed as AG23F4
Source text: AGF215, AGF234 and AGF263 were compared to AGF23 as inhibitors of proliferation of engineered Chinese hamster ovary (CHO) cells expressing human PCFT (R2/PCFT4), FRα (RT16), or RFC (PC43-10).

SMILES: Nc1nc2[nH]c(CCCNc3ccc(C(=O)N[C@@H](CCC(=O)O)C(=O)O)cc3)cc2c(=O)[nH]1 [AGF234]
- IC50: 1 to 6 nM

Reference: patent US10239880B2, “Cyclopenta[d]pyrimidines and substituted cyclopenta[d]pyrimidines as antitubulin and microtubule targeting agents, monocyclic pyrimidines as tubulin inhibitors, and pyrrolopyrimidines as targeted antifolates and tubulin and multiple receptor tyrosine kinase inhibition and antitumor agents” (Duquesne University of the Holy Spirit, priority 2015, dated 2019)
